# Source: the supplement of paper PMC4604168 (melanoma cell lines)
# The other results are listed elsewhere or left out. Repeats are few or missing, and single values can be far off.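 The apoptosis fraction was the count of cleaved-PARP antibody-stained nuclei relative to all DNA-stained nuclei, imaged in 1,536-well plates. Screening doses were set so most cells survived, and baseline and induced cleaved-PARP levels vary greatly across cell lines.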
# Test system: COLO829
# Assay: cleaved PARP positive nuclei fraction relative to DMSO control; melanoma cells; higher = more apoptosis
# Conditions: library dose: low library concentration; 72 h
row,SMILES,cleaved PARP positive nuclei fraction
1,"Nc1ccn([C@@H]2O[C@H](CO)[C@@H](O)C2(F)F)c(=O)n1 [gemcitabine] + O=S(=O)(c1ccccc1)N(CC(F)(F)F)c1ccc(C(O)(C(F)(F)F)C(F)(F)F)cc1 [T0901317] (first compound 0.0004 µM, partner dose 1.4 µM)",145%
2,"Nc1ncn([C@H]2C[C@H](O)[C@@H](CO)O2)c(=O)n1 [decitabine] + O=C(Nc1ccccc1)c1cc([N+](=O)[O-])ccc1Cl [GW9662] (first compound 0.1 µM, partner dose 2 µM)",216%
3,"Nc1nc(F)nc2c1ncn2[C@@H]1O[C@H](CO)[C@@H](O)[C@@H]1O [fludarabine] + Cn1cc(/C=C2\C(=O)Nc3cccnc32)c2ccccc21 [GW441756] (first compound 0.2 µM, partner dose 0.4 µM)",174%
4,"Nc1ccn([C@@H]2O[C@H](CO)[C@@H](O)C2(F)F)c(=O)n1 [gemcitabine] + CCN(CC)CCCCNc1ncc2cc(-c3cc(OC)cc(OC)c3)c(NC(=O)NC(C)(C)C)nc2n1 [PD173074] (first compound 0.0004 µM, partner dose 0.1 µM)",90.3%
5,"CCCS(=O)(=O)Nc1ccc(F)c(C(=O)c2c[nH]c3ncc(Cl)cc23)c1F + COc1ccc(COc2ccc(Cc3cnc(N)nc3N)cc2OC)cc1 [GW2580] (first compound 0.08 µM, partner dose 1 µM)",295%
6,"Nc1ccn([C@@H]2O[C@H](CO)[C@@H](O)C2(F)F)c(=O)n1 [gemcitabine] + CCc1ccc(CCOc2ccc(CC3SC(=O)NC3=O)cc2)nc1 [pioglitazone] (first compound 0.0004 µM, partner dose 2 µM)",79.9%
7,"Nc1ncn([C@H]2C[C@H](O)[C@@H](CO)O2)c(=O)n1 [decitabine] + Oc1cc(-c2nc(-c3ccccc3)[nH]c2-c2ccncc2)ccc1Cl [L779450] (first compound 0.1 µM, partner dose 0.2 µM)",143%
8,"CNC(=O)c1cc(Oc2ccc(NC(=O)Nc3ccc(Cl)c(C(F)(F)F)c3)cc2)ccn1 [sorafenib] + Cc1cc([N+](=O)[O-])ccc1NS(=O)(=O)c1cc(Cl)ccc1Cl [FH535] (first compound 0.4 µM, partner dose 1 µM)",64.3%
9,"O=C(O)c1ccc2c(c1)nc(Nc1cccc(Cl)c1)c1ccncc12 + N#Cc1c(O)c2c(-c3ccc(-c4ccccc4O)cc3)csc2[nH]c1=O [A769662] (first compound 0.4 µM, partner dose 2 µM)",149%
10,"Nc1ccn([C@@H]2O[C@H](CO)[C@@H](O)C2(F)F)c(=O)n1 [gemcitabine] + COc1ccc(COc2ccc(Cc3cnc(N)nc3N)cc2OC)cc1 [GW2580] (first compound 0.0004 µM, partner dose 1 µM)",140%
11,"Nc1ncn([C@H]2C[C@H](O)[C@@H](CO)O2)c(=O)n1 [decitabine] + O=C1NC(=O)/C(=C/c2ccc(-c3ccc(F)cc3O)o2)S1 [AS252424] (first compound 0.1 µM, partner dose 1 µM)",93.5%
12,"CCCS(=O)(=O)Nc1ccc(F)c(C(=O)c2c[nH]c3ncc(Cl)cc23)c1F + Cn1cc(/C=C2\C(=O)Nc3cccnc32)c2ccccc21 [GW441756] (first compound 0.08 µM, partner dose 0.4 µM)",28.7%
13,"Cc1cc(Nc2cc(N3CCN(C)CC3)nc(/C=C/c3ccccc3)n2)n[nH]1 + O=c1cc(-c2cccc3c2Sc2ccccc2S3)oc(N2CCOCC2)c1 [KU55933] (first compound 0.04 µM, partner dose 1 µM)",62.1%
14,"Cn1c(=O)n(-c2ccc(C(C)(C)C#N)cc2)c2c3cc(-c4cnc5ccccc5c4)ccc3ncc21 + COc1cc2ncnc(Nc3ccc(Oc4ccccc4)cc3)c2cc1OC [SrcI1] (first compound 0.004 µM, partner dose 2 µM)",99.6%
15,"Cc1cc(Nc2cc(N3CCN(C)CC3)nc(/C=C/c3ccccc3)n2)n[nH]1 + O=S(=O)(c1ccccc1)N(CC(F)(F)F)c1ccc(C(O)(C(F)(F)F)C(F)(F)F)cc1 [T0901317] (first compound 0.04 µM, partner dose 1.4 µM)",53.5%

# 2 records drawn at random from the list so far, as already listed:
row,SMILES,cleaved PARP positive nuclei fraction
4,"Nc1ccn([C@@H]2O[C@H](CO)[C@@H](O)C2(F)F)c(=O)n1 [gemcitabine] + CCN(CC)CCCCNc1ncc2cc(-c3cc(OC)cc(OC)c3)c(NC(=O)NC(C)(C)C)nc2n1 [PD173074] (first compound 0.0004 µM, partner dose 0.1 µM)",90.3%
6,"Nc1ccn([C@@H]2O[C@H](CO)[C@@H](O)C2(F)F)c(=O)n1 [gemcitabine] + CCc1ccc(CCOc2ccc(CC3SC(=O)NC3=O)cc2)nc1 [pioglitazone] (first compound 0.0004 µM, partner dose 2 µM)",79.9%
